Article PMC6054272, “Arabidopsis SKP1-like protein13 (ASK13) positively regulates seed germination and seedling growth under abiotic stress” (Journal of Experimental Botany, 2018)
No constants are given. Whether binding was seen depends on the method and setting. Binding can be weak; no strength is given. Tags and fused reporters may be left off the sequences shown.

Columns and labels:
[1] = target: T1, ASK7 (Arabidopsis SKP1-like 7), yeast two-hybrid fusion (Arabidopsis thaliana) (UniProt Q9LSY0); test: two-hybrid; one-to-one: pDEST-GBKT7 and pDEST-GADT7 constructs co-transformed into Y2H Gold; SD-Ade-His-Leu-Trp/X-alpha-Gal/aureobasidin agar
T1 sequence: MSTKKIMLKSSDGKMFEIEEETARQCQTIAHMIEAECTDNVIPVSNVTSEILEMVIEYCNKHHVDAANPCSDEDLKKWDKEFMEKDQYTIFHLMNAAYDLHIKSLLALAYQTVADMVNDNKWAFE

[2] = target: T2, Arabidopsis SKP1-like protein13 (ASK13), yeast two-hybrid fusion (Arabidopsis thaliana) (UniProt Q9M1X5); test: two-hybrid; library screen: pGBKT7BD-ASK13 (bait) in Y2H Gold mated with a normalized Arabidopsis Y2H cDNA library (prey); SD lacking histidine, tryptophan, leucine and adenine with X-alpha-Gal and aureobasidin A; retrieved plasmids retested with the empty bait vector and with ASK13
T2 sequence: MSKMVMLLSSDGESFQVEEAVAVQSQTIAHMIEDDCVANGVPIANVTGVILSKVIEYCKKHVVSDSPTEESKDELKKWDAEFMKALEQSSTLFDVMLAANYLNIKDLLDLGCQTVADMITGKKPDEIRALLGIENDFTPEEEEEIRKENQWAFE

[3] = target: ASK6 (Arabidopsis SKP1-like 6), yeast two-hybrid fusion (Arabidopsis thaliana); test: two-hybrid; one-to-one: pDEST-GBKT7 and pDEST-GADT7 constructs co-transformed into Y2H Gold; SD-Ade-His-Leu-Trp/X-alpha-Gal/aureobasidin agar

ASK6 (Arabidopsis SKP1-like 6), yeast two-hybrid fusion
binding [1]: binds

Hsp70-binding protein1 At3g09350 (library prey) (Arabidopsis thaliana)
binding [2]: binds

B1: ASK7 (Arabidopsis SKP1-like 7), yeast two-hybrid fusion (protein, UniProt Q9LSY0 1-125)
chain: T1 sequence
binding [3]: binds
